These are yes or no findings as the source states them, for the method shown. Binding seen in cells or lysates may run through a third protein. Some entries that bind do so weakly or less than the wild type.
Target: T1, MDM2 binding protein (MTBP) (human (endogenous in GF-1712 and U87)) (UniProt Q96DY7)
T1 sequence: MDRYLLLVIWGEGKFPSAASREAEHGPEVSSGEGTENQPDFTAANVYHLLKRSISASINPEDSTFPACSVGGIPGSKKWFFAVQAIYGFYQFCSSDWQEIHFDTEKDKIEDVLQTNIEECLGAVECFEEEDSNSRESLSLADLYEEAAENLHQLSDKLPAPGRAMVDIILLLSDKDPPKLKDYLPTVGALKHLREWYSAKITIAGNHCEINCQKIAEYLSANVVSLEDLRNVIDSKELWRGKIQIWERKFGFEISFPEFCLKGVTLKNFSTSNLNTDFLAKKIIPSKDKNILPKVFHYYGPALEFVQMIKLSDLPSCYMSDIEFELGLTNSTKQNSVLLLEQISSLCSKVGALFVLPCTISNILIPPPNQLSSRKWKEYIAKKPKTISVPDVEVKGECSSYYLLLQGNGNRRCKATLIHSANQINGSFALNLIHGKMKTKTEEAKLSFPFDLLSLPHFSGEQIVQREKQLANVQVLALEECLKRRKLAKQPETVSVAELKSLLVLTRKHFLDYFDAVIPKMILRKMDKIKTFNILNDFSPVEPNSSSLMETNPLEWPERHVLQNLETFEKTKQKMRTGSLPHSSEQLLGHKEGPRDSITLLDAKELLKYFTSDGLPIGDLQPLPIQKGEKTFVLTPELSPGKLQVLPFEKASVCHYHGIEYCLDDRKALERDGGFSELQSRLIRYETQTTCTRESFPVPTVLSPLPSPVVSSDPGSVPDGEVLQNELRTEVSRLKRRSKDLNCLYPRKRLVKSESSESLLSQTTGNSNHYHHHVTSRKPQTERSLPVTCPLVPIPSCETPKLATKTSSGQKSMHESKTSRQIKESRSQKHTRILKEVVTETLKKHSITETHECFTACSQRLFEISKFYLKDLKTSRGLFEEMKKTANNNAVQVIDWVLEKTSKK
Assay: co-IP; GF-1712 and U87 cells in RIPA lysis buffer; incubation with anti-MTBP or anti-MDM2 overnight at 4°C, protein-A/G PLUS-Agarose beads, western blot; anti-IgG as negative control

The chains behind the UniProt entries cited, without tags or fusion partners.
UniProt Q00987: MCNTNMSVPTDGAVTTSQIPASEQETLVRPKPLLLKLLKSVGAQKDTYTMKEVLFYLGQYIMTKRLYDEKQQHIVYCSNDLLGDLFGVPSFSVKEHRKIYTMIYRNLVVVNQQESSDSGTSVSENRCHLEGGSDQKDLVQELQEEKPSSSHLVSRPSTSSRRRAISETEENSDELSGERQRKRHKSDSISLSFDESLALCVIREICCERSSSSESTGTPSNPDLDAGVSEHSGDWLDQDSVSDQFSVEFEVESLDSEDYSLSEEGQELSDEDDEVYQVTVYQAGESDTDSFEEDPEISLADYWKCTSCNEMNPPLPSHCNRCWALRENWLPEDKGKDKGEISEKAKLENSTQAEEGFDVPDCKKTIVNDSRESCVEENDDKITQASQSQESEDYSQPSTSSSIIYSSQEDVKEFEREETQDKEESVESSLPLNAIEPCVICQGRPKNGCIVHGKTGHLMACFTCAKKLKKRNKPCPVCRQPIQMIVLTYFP

Substance	binding
mouse double minute 2 (MDM2) protein (from UniProt Q00987 1-491)	binds
p53 (from UniProt P04637 1-393)	no binding
